± gives the standard deviation of the averaged measurements. The effect of the compound repeats well; differences between the knockouts mostly do not.
System: SKBR3
Test: relative cell number vs DMSO control (72 h) (% of DMSO); higher = less growth inhibition (more cells)
Experimental: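 QMAP-Seq: a pool of 5 breast cancer cell lines (ZR-75-1, SKBR3, HCC-38, MDA-MB-231, BT-20), each carrying 12 doxycycline-inducible Cas9 sgRNA perturbations (11 knockouts plus non-targeting sgNT), was treated with compounds for 72 h at four 10-fold doses (10 nM-10 uM or 1 nM-1 uM range). Barcodes were amplified and sequenced, and cell number was interpolated from 293T spike-in standard curves. The result is expressed as % of the median of DMSO wells. Two biological replicates.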

O=C(CCc1ccc(O)cc1)c1c(O)cc(O)cc1O [Phloretin]
Settings | relative cell number
sgRNA knockout: sgATF3, 10 nM | 103 ± 17
sgRNA knockout: sgATF3, 100 nM | 115 ± 40
sgRNA knockout: sgATF3, 1000 nM | 113 ± 17
sgRNA knockout: sgATF3, 10000 nM | 109 ± 21
sgRNA knockout: sgATF4, 10 nM | 93.9 ± 14
sgRNA knockout: sgATF4, 100 nM | 107 ± 11
sgRNA knockout: sgATF4, 1000 nM | 86.9 ± 5
sgRNA knockout: sgATF4, 10000 nM | 94.5 ± 8.8
sgRNA knockout: sgATF6, 10 nM | 91.4 ± 3.8
sgRNA knockout: sgATF6, 100 nM | 92.1 ± 4.8
sgRNA knockout: sgATF6, 1000 nM | 88.2 ± 2.5
sgRNA knockout: sgATF6, 10000 nM | 96.9 ± 14
sgRNA knockout: sgATG7, 10 nM | 75.4 ± 21
sgRNA knockout: sgATG7, 100 nM | 104 ± 35
sgRNA knockout: sgATG7, 1000 nM | 98.5 ± 16
sgRNA knockout: sgATG7, 10000 nM | 100 ± 21
sgRNA knockout: sgERN1, 10 nM | 90.1 ± 2.2
sgRNA knockout: sgERN1, 100 nM | 92.5 ± 22
sgRNA knockout: sgERN1, 1000 nM | 95.1 ± 15
sgRNA knockout: sgERN1, 10000 nM | 94.3 ± 6
sgRNA knockout: sgHSF1, 10 nM | 82.9 ± 6.8
sgRNA knockout: sgHSF1, 100 nM | 102 ± 2.3
sgRNA knockout: sgHSF1, 1000 nM | 92.1 ± 9.6
sgRNA knockout: sgHSF1, 10000 nM | 84.7 ± 3.4
sgRNA knockout: sgHSF2, 10 nM | 83.8 ± 12
sgRNA knockout: sgHSF2, 100 nM | 84.1 ± 24
sgRNA knockout: sgHSF2, 1000 nM | 80.7 ± 7
sgRNA knockout: sgHSF2, 10000 nM | 92.8 ± 15
sgRNA knockout: sgKEAP1, 10 nM | 87.6 ± 1.2
sgRNA knockout: sgKEAP1, 100 nM | 93 ± 6.6
sgRNA knockout: sgKEAP1, 1000 nM | 89.7 ± 12
sgRNA knockout: sgKEAP1, 10000 nM | 101 ± 18
sgRNA knockout: sgNFE2L2, 10 nM | 82.5 ± 11
sgRNA knockout: sgNFE2L2, 100 nM | 86.5 ± 14
sgRNA knockout: sgNFE2L2, 1000 nM | 112 ± 24
sgRNA knockout: sgNFE2L2, 10000 nM | 112 ± 28
sgRNA knockout: sgSLC35F2, 10 nM | 100 ± 11
sgRNA knockout: sgSLC35F2, 100 nM | 103 ± 2.5
sgRNA knockout: sgSLC35F2, 1000 nM | 82.2 ± 3.6
sgRNA knockout: sgSLC35F2, 10000 nM | 103 ± 5.7
sgRNA knockout: sgXBP1, 10 nM | 89.5 ± 14
sgRNA knockout: sgXBP1, 100 nM | 130 ± 21
sgRNA knockout: sgXBP1, 1000 nM | 93.5 ± 20
sgRNA knockout: sgXBP1, 10000 nM | 101 ± 19

Nc1ccn([C@@H]2O[C@H](CO)[C@@H](O)C2(F)F)c(=O)n1 [Gemcitabine]
Settings | relative cell number
sgRNA knockout: sgATF3, 10 nM | 24.5 ± 2.1
sgRNA knockout: sgATF3, 100 nM | 16.7 ± 1.9
sgRNA knockout: sgATF3, 1000 nM | 9.23 ± 2.1
sgRNA knockout: sgATF3, 10000 nM | 10.5 ± 3.6
sgRNA knockout: sgATF4, 10 nM | 29.9 ± 1.4
sgRNA knockout: sgATF4, 100 nM | 12 ± 2.7
sgRNA knockout: sgATF4, 1000 nM | 17.7 ± 5.7
sgRNA knockout: sgATF4, 10000 nM | 16.2 ± 2.4
sgRNA knockout: sgATF6, 10 nM | 23.9 ± 6.4
sgRNA knockout: sgATF6, 100 nM | 13.2 ± 2.9
sgRNA knockout: sgATF6, 1000 nM | 14.69 ± 0.13
sgRNA knockout: sgATF6, 10000 nM | 9.76 ± 0.82
sgRNA knockout: sgATG7, 10 nM | 25.3 ± 2.8
sgRNA knockout: sgATG7, 100 nM | 13.4 ± 6.7
sgRNA knockout: sgATG7, 1000 nM | 8.28 ± 1.3
sgRNA knockout: sgATG7, 10000 nM | 13.7 ± 4.8
sgRNA knockout: sgERN1, 10 nM | 31.9 ± 0.38
sgRNA knockout: sgERN1, 100 nM | 24.5 ± 3.9
sgRNA knockout: sgERN1, 1000 nM | 17.4 ± 1
sgRNA knockout: sgERN1, 10000 nM | 14.3 ± 0.31
sgRNA knockout: sgHSF1, 10 nM | 24.8 ± 0.64
sgRNA knockout: sgHSF1, 100 nM | 13.2 ± 6.5
sgRNA knockout: sgHSF1, 1000 nM | 10.9 ± 6.3
sgRNA knockout: sgHSF1, 10000 nM | 13.5 ± 3.8
sgRNA knockout: sgHSF2, 10 nM | 31.9 ± 4.9
sgRNA knockout: sgHSF2, 100 nM | 14 ± 0.22
sgRNA knockout: sgHSF2, 1000 nM | 22.3 ± 2.4
sgRNA knockout: sgHSF2, 10000 nM | 12.6 ± 2.5
sgRNA knockout: sgKEAP1, 10 nM | 21.4 ± 6.7
sgRNA knockout: sgKEAP1, 100 nM | 12.8 ± 0.55
sgRNA knockout: sgKEAP1, 1000 nM | 12.7 ± 7.9
sgRNA knockout: sgKEAP1, 10000 nM | 8.67 ± 1.8
sgRNA knockout: sgNFE2L2, 10 nM | 25.2 ± 5.2
sgRNA knockout: sgNFE2L2, 100 nM | 9.5 ± 2.9
sgRNA knockout: sgNFE2L2, 1000 nM | 13.2 ± 6.2
sgRNA knockout: sgNFE2L2, 10000 nM | 10.6 ± 2.9
sgRNA knockout: sgSLC35F2, 10 nM | 21.3 ± 0.7
sgRNA knockout: sgSLC35F2, 100 nM | 10.41 ± 0.067
sgRNA knockout: sgSLC35F2, 1000 nM | 15.1 ± 0.37
sgRNA knockout: sgSLC35F2, 10000 nM | 22.6 ± 4.2
sgRNA knockout: sgXBP1, 10 nM | 32.6 ± 7.6
sgRNA knockout: sgXBP1, 100 nM | 9.26 ± 0.8
sgRNA knockout: sgXBP1, 1000 nM | 13.3 ± 5.5
sgRNA knockout: sgXBP1, 10000 nM | 16.2 ± 1.8

Cc1cn(-c2cc(NC(=O)c3ccc(C)c(Nc4nccc(-c5cccnc5)n4)c3)cc(C(F)(F)F)c2)cn1 [Nilotinib]
Settings | relative cell number
sgRNA knockout: sgATF3, 10 nM | 103.4 ± 0.76
sgRNA knockout: sgATF3, 100 nM | 98.71 ± 0.27
sgRNA knockout: sgATF3, 1000 nM | 86.7 ± 17
sgRNA knockout: sgATF3, 10000 nM | 24.7 ± 14
sgRNA knockout: sgATF4, 10 nM | 96.54 ± 0.58
sgRNA knockout: sgATF4, 100 nM | 96.8 ± 20
sgRNA knockout: sgATF4, 1000 nM | 94 ± 31
sgRNA knockout: sgATF4, 10000 nM | 21 ± 4
sgRNA knockout: sgATF6, 10 nM | 107 ± 26
sgRNA knockout: sgATF6, 100 nM | 92.5 ± 2.9
sgRNA knockout: sgATF6, 1000 nM | 91.4 ± 1.1
sgRNA knockout: sgATF6, 10000 nM | 19.5 ± 10
sgRNA knockout: sgATG7, 10 nM | 114 ± 19
sgRNA knockout: sgATG7, 100 nM | 90.5 ± 1.7
sgRNA knockout: sgATG7, 1000 nM | 96 ± 11
sgRNA knockout: sgATG7, 10000 nM | 26.8 ± 18
sgRNA knockout: sgERN1, 10 nM | 83.6 ± 10
sgRNA knockout: sgERN1, 100 nM | 107 ± 1.3
sgRNA knockout: sgERN1, 1000 nM | 125 ± 15
sgRNA knockout: sgERN1, 10000 nM | 18.8 ± 0.3
sgRNA knockout: sgHSF1, 10 nM | 86.4 ± 19
sgRNA knockout: sgHSF1, 100 nM | 102 ± 3.5
sgRNA knockout: sgHSF1, 1000 nM | 96.7 ± 8.7
sgRNA knockout: sgHSF1, 10000 nM | 19.9 ± 6.1
sgRNA knockout: sgHSF2, 10 nM | 110 ± 5.4
sgRNA knockout: sgHSF2, 100 nM | 97.8 ± 7.9
sgRNA knockout: sgHSF2, 1000 nM | 99.9 ± 9.4
sgRNA knockout: sgHSF2, 10000 nM | 23.6 ± 1
sgRNA knockout: sgKEAP1, 10 nM | 78.2 ± 18
sgRNA knockout: sgKEAP1, 100 nM | 98.9 ± 11
sgRNA knockout: sgKEAP1, 1000 nM | 106 ± 17
sgRNA knockout: sgKEAP1, 10000 nM | 22.5 ± 3.8
sgRNA knockout: sgNFE2L2, 10 nM | 68.4 ± 4.7
sgRNA knockout: sgNFE2L2, 100 nM | 101 ± 13
sgRNA knockout: sgNFE2L2, 1000 nM | 101.8 ± 0.5
sgRNA knockout: sgNFE2L2, 10000 nM | 24.3 ± 7.7
sgRNA knockout: sgSLC35F2, 10 nM | 99.6 ± 21
sgRNA knockout: sgSLC35F2, 100 nM | 92.1 ± 9.3
sgRNA knockout: sgSLC35F2, 1000 nM | 91.2 ± 20
sgRNA knockout: sgSLC35F2, 10000 nM | 16.7 ± 3.2
sgRNA knockout: sgXBP1, 10 nM | 102 ± 13
sgRNA knockout: sgXBP1, 100 nM | 96.9 ± 20
sgRNA knockout: sgXBP1, 1000 nM | 94.3 ± 22
sgRNA knockout: sgXBP1, 10000 nM | 16.7 ± 9.9

From the supplement of paper PMC7661543
